Data from doi:10.1101/2025.06.12.659319.
Results are given in words; binding and its absence hold for the method and conditions named. For some assays here: Binding can be weak; no strength is given.

Assays:
[1] = target: T1, FITC-ΔNp63α NLSbip peptide (residues 278-302) (human); assay: fluorescence polarisation
T1 sequence (peptide, FITC on the N-terminus): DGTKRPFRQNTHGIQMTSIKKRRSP

[2] = target: T2, FITC-ΔNp63α NLS mNLSbip peptide (human); assay: fluorescence polarisation
T2 sequence (peptide, FITC on the N-terminus): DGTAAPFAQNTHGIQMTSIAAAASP

Substance | binding [1] | binding [2]
human IMPα5ΔIBB (importin α5 lacking the IMPβ1 binding domain) (domain or fragment) | binds | –
mIMPα1ΔIBB (label of the legend of Figure 3B) (domain or fragment) | – | no binding (tested: 20 μM)
